Results are given in words; binding and its absence hold for the method and conditions named. In cells and extracts the contact can be indirect. Some binding calls cover weakened binding; strength is not graded here.
Target: CLEC14a (C-type lectin domain family 14 member), endogenous in HUVECs (human (endogenous in HUVEC)) (UniProt Q86T13)
Test: co-IP; HUVEC extract (1% TX-100 in PBS, 1 mg protein) incubated overnight at 4 °C with sheep anti-CLEC14a or control antibody on protein G resin; blot with anti-HSP70-1A

The chains behind the UniProt entries cited, without tags or fusion partners. Residues count along the entry.
UniProt Q86T13, residues 22-490: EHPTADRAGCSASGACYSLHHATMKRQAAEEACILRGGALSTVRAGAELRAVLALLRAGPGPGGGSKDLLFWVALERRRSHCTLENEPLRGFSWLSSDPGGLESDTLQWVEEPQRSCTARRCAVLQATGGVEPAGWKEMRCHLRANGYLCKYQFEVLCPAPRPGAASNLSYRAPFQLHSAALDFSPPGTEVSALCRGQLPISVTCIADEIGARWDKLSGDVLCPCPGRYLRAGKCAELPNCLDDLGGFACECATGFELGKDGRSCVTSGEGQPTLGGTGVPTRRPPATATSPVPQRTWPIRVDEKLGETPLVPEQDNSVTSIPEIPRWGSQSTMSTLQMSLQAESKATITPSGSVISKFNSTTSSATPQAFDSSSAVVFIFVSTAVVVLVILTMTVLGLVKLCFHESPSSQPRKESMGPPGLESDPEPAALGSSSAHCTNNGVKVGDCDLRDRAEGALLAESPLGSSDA
UniProt P0DMV8: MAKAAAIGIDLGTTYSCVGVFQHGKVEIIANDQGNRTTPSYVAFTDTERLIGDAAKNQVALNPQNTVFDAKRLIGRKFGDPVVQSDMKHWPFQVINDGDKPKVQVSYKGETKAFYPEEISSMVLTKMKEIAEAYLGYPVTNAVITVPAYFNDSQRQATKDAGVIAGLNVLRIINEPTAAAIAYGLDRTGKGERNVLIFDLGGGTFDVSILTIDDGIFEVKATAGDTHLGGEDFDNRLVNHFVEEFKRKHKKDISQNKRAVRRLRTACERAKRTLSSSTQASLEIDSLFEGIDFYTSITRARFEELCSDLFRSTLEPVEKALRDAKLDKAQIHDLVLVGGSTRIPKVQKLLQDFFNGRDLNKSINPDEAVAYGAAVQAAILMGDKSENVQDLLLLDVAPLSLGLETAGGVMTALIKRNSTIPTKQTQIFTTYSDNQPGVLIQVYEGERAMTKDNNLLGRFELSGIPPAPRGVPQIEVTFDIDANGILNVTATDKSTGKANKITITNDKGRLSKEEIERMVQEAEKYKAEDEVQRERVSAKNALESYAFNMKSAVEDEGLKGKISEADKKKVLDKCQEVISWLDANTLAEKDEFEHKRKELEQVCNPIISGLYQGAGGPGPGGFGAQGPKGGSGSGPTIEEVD

binding: binds
Substance: heat shock protein 70-1A (HSP70-1A), endogenous in HUVECs (from UniProt P0DMV8 1-641)

From PMC5587741
